# Laboratory results: PubChem BioAssay AID602346 (Broad Institute, 2012)
# In all, about 340,000 compounds went through this assay and about 1,200 (0.35%) were called active. The shares of active, inactive and inconclusive entries below differ from those in the screen. No stated cut-off is given here; in the data, active means inhibition above about 50% (passing the limit was not always enough); inconclusive means no clear call, values can overlap the other calls; inactive means below about 31%.
# Assay: blockers of Vif multimerization in cells – imaging, HEK293T, single point, primary screen (AID 602346)
# Conditions: Vif self-association by quenched fluorescence, 24 h, at 7.49 µM, stronger effect = higher value
row,Compound,inhibition
1,CN1CCc2c(sc(/N=C/c3c[nH]c4ccccc34)c2C(N)=O)C1,inactive: -0.752%
2,CCOc1ccc(S(=O)(=O)Nc2cccc(C(=O)N(C)CC(=O)Nc3ccc(OC)cc3)c2)cc1,active: 72.3%
3,CC(=O)c1cccc(-c2ccnc3c2CC(C(=O)NCc2ccc(F)c(F)c2)O3)c1 (stereo unspecified),inactive: 8.16%
4,CN(C)c1ccc(C2C3=C(CCCC3=O)OC3=C2C(=O)CCC3)cc1,inconclusive: 19.4%
5,CC(=O)Nc1c(-c2ccc(C)cc2)nc2ccc(Cl)cn12,inconclusive: 48.8%
6,CN1CCN(/N=C/c2ccc(Br)cc2)CC1,inconclusive: 34%
7,COc1ccccc1NC(=O)Nc1nc(CC(=O)N2CCN(c3ccccc3F)CC2)cs1,inactive: -10.5%
8,COc1ccc(Cl)c(Cn2c(NCCCO)nc3c2c(=O)n(C)c(=O)n3C)c1,inconclusive: 46%
9,CCS(=O)(=O)c1ccc2c(c1)N(S(=O)(=O)c1ccccc1)CC(C(=O)O)O2 (stereo unspecified),inconclusive: 47.2%
10,O=C(NCCCN1CCc2ccccc2C1)C1CCN(c2nnc(-n3cccc3)s2)CC1,inactive: -0.865%
11,CN(C)Cc1c(-c2ccc(Cl)cc2)nc2ccc(Cl)cn12,inactive: 8.41%
12,C/C(O)=C\c1nc2ccccc2oc1=O,inconclusive: 37.1%
13,O=S(=O)(c1ccc2oc(=S)[nH]c2c1)N1CCOCC1,inconclusive: 36%
14,CN(C)c1ccc(/C=C/C(=O)c2ccc(O)cc2)cc1,active: 83.4%
15,COC(=O)c1sc(-c2ccc(Cl)cc2)cc1NC(=O)CSCC(=O)O,active: 51.3%
16,Cc1cc(NC(=O)CSc2ncnc3sccc23)no1,inconclusive: 30.5%
17,COc1ccccc1-c1cc(NC=O)c2ncc(-c3cccc(C(=O)N(C)C)c3)n2c1,inconclusive: 45.4%
18,CCCC(NC(=O)CCl)c1ccccc1 (stereo unspecified),inconclusive: 42.4%
19,CC(=O)Nc1ccc(S(=O)(=O)N2c3ccccc3C(C)=CC2(C)C)cc1,active: 80.8%
20,COc1cc(Cl)c(C)cc1NC(=O)CN1CCCCCC1,inconclusive: 41%
21,Cc1cc(/C=C2\SC(=S)NC2=O)c(C)n1C1CC1,inactive: -4.42%
22,O=C(CCC1CCCCC1)Nc1ccc(S(=O)(=O)Nc2nccs2)cc1,inconclusive: 32.7%
23,CC(=O)Nc1sc(N/N=C/c2ccccc2F)nc1-c1ccc(C)cc1,inconclusive: 37.5%

row,Compound,inhibition
1,Cc1ccc(F)cc1NC(=O)CCc1c(C)nn(-c2ccc(N3CCCCC3)nn2)c1C,inconclusive: 38%
2,C=CCn1c(NC(=O)c2ccccc2Cl)c(C#N)c2nc3ccccc3nc21,inactive: -13.1%
3,Cc1cc2ccccn2c1C(=O)Nc1ccc(Cl)cc1,inconclusive: 33.2%
4,CSc1ccccc1OCc1cc(C(=O)N2CCN(c3ncccn3)CC2)no1,inactive: -2.53%
5,COc1ccc(/C=C2\CN(Cc3ccccc3)C/C(=C\c3ccc(OC)c(O)c3)C2=O)cc1O,active: 59.4%
6,O=C(CSc1ccccn1)c1ccc(F)cc1,inconclusive: 16.8%
7,c1ccc(Nc2ccccn2)cc1,inactive: 6.84%
9,CCCC(=O)Nc1cc(Cl)ccc1C,inconclusive: 42.1%
10,Cc1ccc(C(c2cc(Cl)c3cccnc3c2O)N2CCN(C)CC2)cc1 (stereo unspecified),active: 54%
11,COc1ccc(S(=O)(=O)N2CCC(C(=O)NCCC(=O)Nc3cccc(Cl)c3)CC2)cc1,inactive: -3.99%
12,Cc1ccc(SCCNC(=O)CN2C(=O)c3ccccc3S2(=O)=O)cc1,inactive: 30.9%
13,CCOc1ccccc1C(=O)Nc1cccc(-c2nnc(-c3ccccc3)o2)c1,inconclusive: 44.7%
14,Cc1cc(C(=O)N/N=C/c2c3ccccc3cc3ccccc23)n[nH]1,inconclusive: 40.8%
15,Cc1ccc(C(=O)C2CCN(S(=O)(=O)c3c(C)noc3C)CC2)cc1,inactive: 0.144%
16,Cc1nc(Sc2nnnn2C)c2c3c(sc2n1)CCC3,active: 96.8%
17,O=C(CCc1ccc(S(=O)(=O)N2CCOCC2)cc1)Nc1ccccc1F,inconclusive: 36.6%
18,NNCCc1ccccc1,inconclusive: 49.2%
19,COc1ccc(N2CCN(Cc3cc(=O)oc4cc(-c5ccccc5)c(O)cc34)CC2)cc1,inconclusive: 45.2%
20,Cc1ccc(NC(=O)c2cc3c(=O)oc4ccccc4c3s2)nc1,inconclusive: 8.99%
21,COc1ccc(CNC(=O)Cc2nn(C)c(=O)c3ccccc23)cc1,inactive: 1.12%
22,CCOC(=O)c1ccc(NC(=O)c2cc(F)c(F)cc2Cl)cc1,inconclusive: 31.7%
23,Nc1c(N(CCC2=CCCCC2)C(=O)COc2ccc(F)cc2Cl)c(=O)[nH]c(=O)n1Cc1ccccc1,inactive: 16.5%

row,Compound,inhibition
1,CN(Cc1cccc(F)c1)C(=O)c1ccc(S(=O)(=O)C(F)F)cc1,inconclusive: 39.1%
2,O=C1NC2(CCCCC2)C(=O)N1CC(=O)N(Cc1ccccc1)c1ccccc1,inconclusive: 29.9%
3,Clc1cncc(Cl)c1N/N=C/c1ccncc1,inactive: -12.3%
4,O=C(N/N=C/c1cccs1)c1cc(-c2ccncc2)nc2ccccc12,active: 117%
5,Cc1cc(-c2nc3ncccc3o2)ccc1NC(=S)NC(=O)C(C)C,inactive: -8.45%
6,CCOC(=O)Cn1nnc(-c2ccc(OCC(C)C)cc2)n1,inconclusive: 37.1%
7,Cc1ccc(NS(=O)(=O)c2ccc(C)c(C(=O)Nc3ccc(S(=O)(=O)Nc4onc(C)c4C)cc3)c2)cc1,inconclusive: 27.5%
8,COc1cccc(-c2nnn(CC(=O)NC3CCCC3)n2)c1OC,inconclusive: 29.6%
9,O=C(COc1ccccc1)Nc1ccc2[nH]ncc2c1,inconclusive: 39.6%
10,CCCOc1ccc(F)cc1-c1cc(C(=O)NCCOC)[nH]n1,inconclusive: 36.5%
11,CCOC(=O)C1=C2SCC(=O)N2C(N)=C(C#N)C1,inconclusive: 45.5%
12,CCN1C(=O)c2cccc3c(S(=O)(=O)Nc4ccccc4O)ccc1c23,active: 112%
13,CC(=O)Nc1cccc(NC(=O)c2ccc(C)c([N+](=O)[O-])c2)c1,inconclusive: 42.7%
14,O=C(Nc1cc(Cl)ccc1Cl)P(=O)(O)c1ccccc1,active: 57.3%
15,CC(Cc1ccccc1)NC(=O)c1cc2ccccc2o1 (stereo unspecified),inactive: 20.3%
16,COC(=O)Cn1c(=O)c2c(nc3n2CC(C)CN3c2ccc(C)c(C)c2)n(C)c1=O (stereo unspecified),inconclusive: 24.7%
17,CCCCc1nc(SCC(=O)N2CCOCC2)c2c(=O)n(C)c(=O)n(C)c2n1,inconclusive: 30.4%
18,CC(=O)NC1(C(F)(F)F)C(=O)Nc2c1c(=O)[nH]c(=O)n2CC(C)C (stereo unspecified),inactive: -6.2%
19,Cc1ccc(S(=O)(=O)N[C@@H](CC(C)C)C(=O)N2CCC(C(=O)N[C@H](C(=O)O)C(C)C)CC2)cc1,inconclusive: 36.5%
20,COc1cccc(-c2csc(N3CCN(C(=O)Nc4ccccc4OC)CC3)n2)c1,active: 122%
21,OCCN1CCN(CC/C=C2/c3ccccc3Sc3ccc(C(F)(F)F)cc32)CC1,inconclusive: 47.5%
22,COCCSc1nnc(NS(=O)(=O)c2ccccc2)s1,active: 56.4%
23,CC(=O)Nc1ccc(C2(c3ccc(NC(C)=O)cc3)NC(=O)c3ccccc32)cc1,inconclusive: 47.5%

row,Compound,inhibition
1,N#C/C(=C\c1cn(Cc2ccc(F)cc2)c2ccccc12)C(=O)NCc1ccco1,inactive: 0.205%
2,CCCCn1c(SC(C)C(=O)c2ccc(OC)cc2)nc2cc(S(N)(=O)=O)ccc21 (stereo unspecified),inactive: -0.334%
3,Cc1ccc(S(=O)(=O)c2ccc([N+](=O)[O-])o2)cc1,active: 89.9%
4,CN(C)c1ccc(C(=O)c2ccc(N(C)C)c3ccccc23)cc1,active: 78.3%
5,O=[N+]([O-])c1ccc2[nH]c(=S)[nH]c2c1,inactive: 0.105%
6,Cn1ccnc1CN1CCCCC1C(=O)Nc1ccc(Oc2cccnc2)cc1 (stereo unspecified),inactive: -8.29%
7,CCc1ccc(C(=O)NNC(=O)CCC2CCCCC2)cc1,inconclusive: 25%
8,COCC(=O)N1CCC(Oc2ccc(C(=O)N3CCN(C)C[C@@H]3C(C)C)cc2)CC1,inconclusive: 43.3%
9,O=C(COC(=O)c1cc(Cl)ccc1[N+](=O)[O-])NC1CC1,active: 55.6%
10,CCOC(=O)c1cc(-c2ccc(N)cc2)sc1N,inconclusive: 40.3%
11,Cc1c(NC(=S)N2CCN(c3ccc(F)cc3)CC2)c(=O)n(-c2ccccc2)n1C,inconclusive: 41.6%
12,Cc1cc(C(=O)Nc2ccc(CC(=O)O)cc2)c(C)o1,inconclusive: 3.11%
13,CCC(Sc1nc2c(cnn2-c2ccc(Cl)cc2)c(=O)[nH]1)C(=O)OC (stereo unspecified),inconclusive: 27.2%
14,COc1cc(CNC(=O)c2cc3ccccc3oc2=O)cc(OC)c1OC,inconclusive: 33%
15,COCCN(C(=O)Cc1cccs1)C(C(=O)NCc1ccc(OC)cc1)c1ccc(C)cc1 (stereo unspecified),active: 112%
16,CCCCN(C)CCCNC(=O)Cn1cc2c(n1)-c1c(oc(C(=O)N3CCCC3)c1C)CC2,inconclusive: 37.3%
17,Cc1ccc(-c2nnc(-c3ccc4c(c3)OCO4)o2)cc1,inconclusive: 48.1%
18,O=C(N/N=C/c1sc(=O)[nH]c1-[n+]1ccccc1)c1ccccc1[O-],inconclusive: 25.2%
19,O=C(NCCN1C(=O)S/C(=C\c2ccc(Cl)cc2)C1=O)C1=COCCO1,inconclusive: 46.3%
20,Cc1cc(C)cc(NC(=O)CCc2nc3sc4c(c3c(=O)[nH]2)CCCC4)c1,active: 151%
21,COc1cc(/C=N/NC(=O)CCC(=O)NC2CCCCC2)ccc1C,active: 50.9%
22,COc1ccc(C2=NS(=O)(=O)N(C)C(C(=O)N3CCCCC3C)=C2)cc1 (stereo unspecified),inconclusive: 29.2%

# 7 successive records from above:
row,Compound,inhibition
7,CCc1ccc(C(=O)NNC(=O)CCC2CCCCC2)cc1,inconclusive: 25%
8,COCC(=O)N1CCC(Oc2ccc(C(=O)N3CCN(C)C[C@@H]3C(C)C)cc2)CC1,inconclusive: 43.3%
9,O=C(COC(=O)c1cc(Cl)ccc1[N+](=O)[O-])NC1CC1,active: 55.6%
10,CCOC(=O)c1cc(-c2ccc(N)cc2)sc1N,inconclusive: 40.3%
11,Cc1c(NC(=S)N2CCN(c3ccc(F)cc3)CC2)c(=O)n(-c2ccccc2)n1C,inconclusive: 41.6%
12,Cc1cc(C(=O)Nc2ccc(CC(=O)O)cc2)c(C)o1,inconclusive: 3.11%
13,CCC(Sc1nc2c(cnn2-c2ccc(Cl)cc2)c(=O)[nH]1)C(=O)OC (stereo unspecified),inconclusive: 27.2%
